Taken from: PubChem BioAssay AID743454 (Peter MacCallum Cancer Centre, 2014)

Screen: 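Search for knock-downs that restore vorinostat killing in resistant colon cancer cells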 (primary screen)
Cells: human HCT116-VR colon cancer cells, selected for vorinostat resistance
Reagents: siRNA pool against human genes, 40 nM siRNA pool
Timing: vorinostat for 24 h, read-out about 72 h after transfection
Treatment: vorinostat at 2.5 µM final
Measured: 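Two measures, CellTiter-Fluor viability and luminescent caspase 3/7 activity, each as fold change against same-plate mock wells, mean of duplicates, then screen-wide robust z-score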
Direction: viability robust z-score: higher = more viable cells than screen typical; caspase robust z-score: higher = more caspase 3/7 activity than screen typical
Active means: 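Hits are knock-downs in viability class RV1/RV2 or caspase class CA1/CA2, excluding ones that killed cells in the no-drug cell-count arm; hits then retested with single siRNAs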
The deposit covers about 18,000 reagents; shown is a part drawn at random. 450 of them (2.5%) were called active. 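Single biological run; no consistent viability z cut-off exists, so the class columns, not z-scores, define the calls.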 Reagent sequences are not shown.

FBLN2 (fibulin 2) → viability hit class: no change; caspase hit class: no change; viability robust z-score: -0.43; caspase robust z-score: 0.3; call: inactive
MAPK13 (mitogen-activated protein kinase 13) → viability hit class: no change; caspase hit class: no change; viability robust z-score: -0.04; caspase robust z-score: -0.22; call: inactive
S100A12 (S100 calcium binding protein A12) → viability hit class: no change; caspase hit class: no change; viability robust z-score: -1.08; caspase robust z-score: 0.08; call: inactive
CWC22 (CWC22 spliceosome associated protein) → viability hit class: RV2 (reduced viability); caspase hit class: no change; viability robust z-score: -3.02; caspase robust z-score: -0.64; call: active
SP7 (Sp7 transcription factor) → viability hit class: no change; caspase hit class: no change; viability robust z-score: -2.09; caspase robust z-score: -0.66; call: inactive
HMCES (5-hydroxymethylcytosine binding, ES cell specific) → viability hit class: no change; caspase hit class: no change; viability robust z-score: 0.16; caspase robust z-score: 2.08; call: inactive
ZNF74 (zinc finger protein 74) → viability hit class: no change; caspase hit class: no change; viability robust z-score: 1.26; caspase robust z-score: -0.7; call: inactive
ANKRD34B (ankyrin repeat domain 34B) → viability hit class: no change; caspase hit class: no change; viability robust z-score: 0.2; caspase robust z-score: 1.73; call: inactive
FRA10AC1 (FRA10A associated CGG repeat 1) → viability hit class: no change; caspase hit class: no change; viability robust z-score: 1; caspase robust z-score: 2.41; call: inactive
IFNA7 (interferon alpha 7) → viability hit class: no change; caspase hit class: no change; viability robust z-score: -0.35; caspase robust z-score: 0.1; call: inactive
TMEM183A (transmembrane protein 183A) → viability hit class: no change; caspase hit class: no change; viability robust z-score: -0.6; caspase robust z-score: -0.84; call: inactive
MILR1 (mast cell immunoglobulin like receptor 1) → viability hit class: no change; caspase hit class: no change; viability robust z-score: -1.44; caspase robust z-score: 0.08; call: inactive
RGS22 (regulator of G protein signaling 22) → viability hit class: no change; caspase hit class: no change; viability robust z-score: 0.18; caspase robust z-score: 0.32; call: inactive
BEST4 (bestrophin 4) → viability hit class: no change; caspase hit class: no change; viability robust z-score: 1.26; caspase robust z-score: 0.23; call: inactive
SPATA31G1 (SPATA31 subfamily G member 1) → viability hit class: no change; caspase hit class: no change; viability robust z-score: -0.43; caspase robust z-score: 2.38; call: inactive
CRYGD (crystallin gamma D) → viability hit class: no change; caspase hit class: no change; viability robust z-score: 1.52; caspase robust z-score: -0.36; call: inactive
SLC25A45 → viability hit class: no change; caspase hit class: no change; viability robust z-score: -0.57; caspase robust z-score: -0.24; call: inactive
RNPC3 (RNA binding region (RNP1, RRM) containing 3) → viability hit class: no change; caspase hit class: no change; viability robust z-score: 1.05; caspase robust z-score: -0.73; call: inactive
SMARCB1 (SWI/SNF related BAF chromatin remodeling complex subunit B1) → viability hit class: no change; caspase hit class: no change; viability robust z-score: -1.32; caspase robust z-score: -0.28; call: inactive
CD22 (CD22 molecule) → viability hit class: no change; caspase hit class: no change; viability robust z-score: 0.16; caspase robust z-score: 1.15; call: inactive
PPM1F (protein phosphatase, Mg2+/Mn2+ dependent 1F) → viability hit class: no change; caspase hit class: no change; viability robust z-score: 0.45; caspase robust z-score: -0.66; call: inactive

An excerpt from above, limited to “viability robust z-score”:
RGS22 (regulator of G protein signaling 22)	0.18
BEST4 (bestrophin 4)	1.26
